Test results reported in publication PMC2647735.
These are yes or no findings as the source states them, for the method shown. For some of these results: In cells and extracts the contact can be indirect. Some results given as binding are weak or reduced against the parent protein; the word gives no strength.

Sequences of proteins named here, by UniProt entry; tags and fusion partners are left off.
UniProt Q2HR64: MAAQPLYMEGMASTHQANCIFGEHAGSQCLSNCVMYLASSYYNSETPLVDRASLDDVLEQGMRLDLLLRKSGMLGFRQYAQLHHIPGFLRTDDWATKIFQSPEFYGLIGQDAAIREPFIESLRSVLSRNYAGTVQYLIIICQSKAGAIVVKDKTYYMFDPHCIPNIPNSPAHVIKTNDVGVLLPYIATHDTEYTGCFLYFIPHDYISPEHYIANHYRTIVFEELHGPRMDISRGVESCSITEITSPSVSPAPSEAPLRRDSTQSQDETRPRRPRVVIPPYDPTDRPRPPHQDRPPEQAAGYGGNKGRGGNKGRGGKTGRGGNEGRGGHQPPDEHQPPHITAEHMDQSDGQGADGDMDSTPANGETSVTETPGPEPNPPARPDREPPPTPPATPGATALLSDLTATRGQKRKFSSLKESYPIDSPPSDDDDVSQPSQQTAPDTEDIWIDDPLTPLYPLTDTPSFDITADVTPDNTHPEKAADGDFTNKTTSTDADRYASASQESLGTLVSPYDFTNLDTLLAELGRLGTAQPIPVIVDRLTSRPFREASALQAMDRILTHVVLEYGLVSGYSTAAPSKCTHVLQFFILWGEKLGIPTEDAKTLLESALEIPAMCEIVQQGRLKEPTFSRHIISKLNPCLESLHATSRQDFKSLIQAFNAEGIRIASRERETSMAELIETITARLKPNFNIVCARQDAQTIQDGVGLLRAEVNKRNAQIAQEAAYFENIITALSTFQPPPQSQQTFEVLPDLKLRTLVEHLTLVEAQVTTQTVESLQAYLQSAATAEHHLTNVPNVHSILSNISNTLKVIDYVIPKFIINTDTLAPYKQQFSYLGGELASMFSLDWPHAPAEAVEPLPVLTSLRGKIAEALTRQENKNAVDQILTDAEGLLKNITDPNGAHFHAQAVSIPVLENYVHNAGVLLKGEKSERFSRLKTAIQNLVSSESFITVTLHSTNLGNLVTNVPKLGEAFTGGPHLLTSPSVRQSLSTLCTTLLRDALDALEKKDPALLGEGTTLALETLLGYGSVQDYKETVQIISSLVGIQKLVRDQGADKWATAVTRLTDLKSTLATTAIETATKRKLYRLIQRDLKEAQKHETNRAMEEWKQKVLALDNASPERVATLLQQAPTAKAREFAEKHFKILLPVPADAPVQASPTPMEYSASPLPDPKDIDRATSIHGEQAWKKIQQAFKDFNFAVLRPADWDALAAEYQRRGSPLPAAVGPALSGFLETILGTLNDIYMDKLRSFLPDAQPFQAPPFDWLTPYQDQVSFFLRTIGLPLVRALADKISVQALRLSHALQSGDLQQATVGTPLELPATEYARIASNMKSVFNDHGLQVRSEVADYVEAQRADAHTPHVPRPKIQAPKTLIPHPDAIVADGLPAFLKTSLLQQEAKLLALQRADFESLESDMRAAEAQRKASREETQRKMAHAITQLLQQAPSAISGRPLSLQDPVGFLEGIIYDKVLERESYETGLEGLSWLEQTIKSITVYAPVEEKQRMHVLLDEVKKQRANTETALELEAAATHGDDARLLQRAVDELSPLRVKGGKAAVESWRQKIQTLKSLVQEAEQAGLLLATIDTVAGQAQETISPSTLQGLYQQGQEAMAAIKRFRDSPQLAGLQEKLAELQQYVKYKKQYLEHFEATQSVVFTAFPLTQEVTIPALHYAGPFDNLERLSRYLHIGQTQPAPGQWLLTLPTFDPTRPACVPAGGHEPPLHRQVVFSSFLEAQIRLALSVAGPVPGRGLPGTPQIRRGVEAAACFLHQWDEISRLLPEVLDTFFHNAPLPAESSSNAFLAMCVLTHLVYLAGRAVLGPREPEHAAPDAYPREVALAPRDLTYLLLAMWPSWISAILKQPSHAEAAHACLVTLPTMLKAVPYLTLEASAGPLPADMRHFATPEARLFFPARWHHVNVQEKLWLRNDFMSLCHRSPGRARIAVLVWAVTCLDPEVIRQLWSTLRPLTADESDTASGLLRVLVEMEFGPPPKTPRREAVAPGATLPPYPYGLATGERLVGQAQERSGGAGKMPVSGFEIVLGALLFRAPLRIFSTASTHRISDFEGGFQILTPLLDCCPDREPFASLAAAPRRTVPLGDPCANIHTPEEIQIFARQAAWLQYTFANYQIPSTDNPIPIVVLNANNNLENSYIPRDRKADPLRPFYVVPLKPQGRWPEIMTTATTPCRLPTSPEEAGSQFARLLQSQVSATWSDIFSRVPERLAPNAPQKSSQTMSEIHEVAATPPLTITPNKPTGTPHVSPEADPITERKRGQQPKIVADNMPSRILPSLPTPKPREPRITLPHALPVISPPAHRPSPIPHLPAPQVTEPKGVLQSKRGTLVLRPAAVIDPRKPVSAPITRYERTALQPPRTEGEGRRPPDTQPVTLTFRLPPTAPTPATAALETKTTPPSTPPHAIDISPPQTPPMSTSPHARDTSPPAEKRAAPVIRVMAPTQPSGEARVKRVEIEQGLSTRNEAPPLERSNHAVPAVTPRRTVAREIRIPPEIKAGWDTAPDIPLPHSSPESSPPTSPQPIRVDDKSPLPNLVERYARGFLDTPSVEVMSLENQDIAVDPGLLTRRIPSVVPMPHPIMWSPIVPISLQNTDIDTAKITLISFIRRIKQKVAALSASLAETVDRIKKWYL
UniProt F5HDE4: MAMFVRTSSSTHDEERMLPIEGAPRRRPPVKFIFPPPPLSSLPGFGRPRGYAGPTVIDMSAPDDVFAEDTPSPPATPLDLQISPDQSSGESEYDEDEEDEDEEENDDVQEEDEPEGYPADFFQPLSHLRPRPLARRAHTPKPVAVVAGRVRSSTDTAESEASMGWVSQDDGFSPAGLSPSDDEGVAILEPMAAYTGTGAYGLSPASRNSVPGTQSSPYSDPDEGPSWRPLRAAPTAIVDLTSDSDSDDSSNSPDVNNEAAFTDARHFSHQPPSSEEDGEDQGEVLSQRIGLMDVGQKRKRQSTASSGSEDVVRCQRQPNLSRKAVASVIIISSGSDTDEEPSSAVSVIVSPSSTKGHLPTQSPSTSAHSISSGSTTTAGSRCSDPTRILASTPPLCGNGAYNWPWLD

Columns and labels:
[1] = biological target: T1, KSHV ORF65 (capsid protein) (Kaposi's sarcoma-associated herpesvirus (KSHV, HHV-8)) (UniProt Q2HR63); test: co-IP; nocodazole-treated and TPA-induced BCBL-1 cells; IP with anti-ORF65, Western blot for capsid and tegument proteins; data not shown
T1 sequence: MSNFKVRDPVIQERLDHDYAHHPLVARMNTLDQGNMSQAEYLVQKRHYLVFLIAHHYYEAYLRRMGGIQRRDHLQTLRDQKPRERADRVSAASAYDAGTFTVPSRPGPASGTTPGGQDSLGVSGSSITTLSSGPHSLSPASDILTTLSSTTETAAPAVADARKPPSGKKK

[2] = biological target: KSHV ORF64 (yeast two-hybrid, unpublished data) (Kaposi's sarcoma-associated herpesvirus (KSHV, HHV-8)) (UniProt Q2HR64); test: two-hybrid; further mapping of ORF45 against other virion proteins by Y2H; unpublished data
[3] = biological target: T1, KSHV ORF65 (capsid protein) (Kaposi's sarcoma-associated herpesvirus (KSHV, HHV-8)); test: co-IP; lysates of TPA-induced 293T carrying BAC36 or BAC-stop45; IP with anti-ORF65, Western blot for capsid and tegument proteins

Row | Substance | binding [1] | binding [2] | binding [3]
1 | KSHV ORF45 (expressed from the virus in infected cells) (from UniProt F5HDE4 1-407) | binds | – | –
2 | KSHV ORF45 (yeast two-hybrid mapping against ORF64 and ORF63, unpublished data) (from UniProt F5HDE4 1-407) | – | binds | –
3 | KSHV ORF64 (tegument protein) (from UniProt Q2HR64 1-2635) | binds | – | binds
